Data source: PubChem BioAssay AID686943 (Drosophila RNAi Screening Center, 2013)

Purpose: 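Search across the genome for regulators of signalling from receptor tyrosine kinase to ERK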 (primary screen)
Cell system: Drosophila S2R+ haemocyte-like cells expressing YFP-tagged ERK (Rolled)
Reagents: long dsRNA against Drosophila genes
Challenge: insulin stimulation versus unstimulated cells; dose and duration not given
Measured: 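Per-plate z-scores of phospho-ERK immunostaining normalised to YFP-tagged ERK, measured with and without insulin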
Scale: replicate 1, z-score of dpERK with insulin and replicate 2, z-score of dpERK with insulin: higher = more active ERK per ERK-YFP after insulin
The deposit covers about 23,000 reagents; shown is an unselected part of those with a known target gene and a result. 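Extra replicates exist only for a retested subset of genes; insulin dose and duration not given; both raised and lowered dpERK matter.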 Further read-outs or replicates are left out here. Reagent sequences are not shown. The record does not give: the amount of reagent, the time to read-out.

Gpdh1 [DRSC03336]: replicate 1, z-score of dpERK with insulin = 0.04; replicate 2, z-score of dpERK with insulin = -0.3
Gpdh1 [DRSC21666]: replicate 1, z-score of dpERK with insulin = -0.72; replicate 2, z-score of dpERK with insulin = -1.21
Kif3C [DRSC17209]: replicate 1, z-score of dpERK with insulin = -0.06; replicate 2, z-score of dpERK with insulin = 0.35
Kif3C [DRSC17210]: replicate 1, z-score of dpERK with insulin = -0.36; replicate 2, z-score of dpERK with insulin = 0.41
CG12065 [DRSC17798]: replicate 1, z-score of dpERK with insulin = 0.1; replicate 2, z-score of dpERK with insulin = 1
CG12065 [DRSC17799]: replicate 1, z-score of dpERK with insulin = -0.39; replicate 2, z-score of dpERK with insulin = 0.32
Prosalpha3 [DRSC04644]: replicate 1, z-score of dpERK with insulin = -0.93; replicate 2, z-score of dpERK with insulin = -2.56
smid [DRSC11398]: replicate 1, z-score of dpERK with insulin = 0.4; replicate 2, z-score of dpERK with insulin = -1.54
Cyp4c3 [DRSC16631]: replicate 1, z-score of dpERK with insulin = -0.44; replicate 2, z-score of dpERK with insulin = -0.9
CG31468 [DRSC13637]: replicate 1, z-score of dpERK with insulin = 0.57; replicate 2, z-score of dpERK with insulin = 2.17
Fas1 [DRSC16669]: replicate 1, z-score of dpERK with insulin = -1.31; replicate 2, z-score of dpERK with insulin = -1.68
CG2528 [DRSC03724]: replicate 1, z-score of dpERK with insulin = 0.19; replicate 2, z-score of dpERK with insulin = 0.61
